Laboratory results reported in publication PMC10960834.
Results are given in words; binding and its absence hold for the method and conditions named. Binding seen in cells or lysates may run through a third protein. Some entries that bind do so weakly or less than the wild type. For some assays here: Where a sequence is shown, tags or fusion partners need not be part of it.

Protein sequences, listed by entry. Tags and fused reporters are not part of them. Lines headed by an entry give the natural chain unless they say otherwise; changes in a name come on top.
UniProt P05198: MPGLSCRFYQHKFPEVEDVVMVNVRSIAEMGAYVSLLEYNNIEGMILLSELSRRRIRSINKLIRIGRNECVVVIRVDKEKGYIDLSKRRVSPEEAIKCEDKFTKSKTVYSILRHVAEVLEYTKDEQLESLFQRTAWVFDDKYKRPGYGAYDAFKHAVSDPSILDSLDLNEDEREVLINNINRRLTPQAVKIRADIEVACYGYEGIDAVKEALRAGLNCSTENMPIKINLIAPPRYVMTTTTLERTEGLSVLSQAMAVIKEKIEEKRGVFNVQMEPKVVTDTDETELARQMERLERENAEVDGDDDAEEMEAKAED
UniProt Q9P2K8: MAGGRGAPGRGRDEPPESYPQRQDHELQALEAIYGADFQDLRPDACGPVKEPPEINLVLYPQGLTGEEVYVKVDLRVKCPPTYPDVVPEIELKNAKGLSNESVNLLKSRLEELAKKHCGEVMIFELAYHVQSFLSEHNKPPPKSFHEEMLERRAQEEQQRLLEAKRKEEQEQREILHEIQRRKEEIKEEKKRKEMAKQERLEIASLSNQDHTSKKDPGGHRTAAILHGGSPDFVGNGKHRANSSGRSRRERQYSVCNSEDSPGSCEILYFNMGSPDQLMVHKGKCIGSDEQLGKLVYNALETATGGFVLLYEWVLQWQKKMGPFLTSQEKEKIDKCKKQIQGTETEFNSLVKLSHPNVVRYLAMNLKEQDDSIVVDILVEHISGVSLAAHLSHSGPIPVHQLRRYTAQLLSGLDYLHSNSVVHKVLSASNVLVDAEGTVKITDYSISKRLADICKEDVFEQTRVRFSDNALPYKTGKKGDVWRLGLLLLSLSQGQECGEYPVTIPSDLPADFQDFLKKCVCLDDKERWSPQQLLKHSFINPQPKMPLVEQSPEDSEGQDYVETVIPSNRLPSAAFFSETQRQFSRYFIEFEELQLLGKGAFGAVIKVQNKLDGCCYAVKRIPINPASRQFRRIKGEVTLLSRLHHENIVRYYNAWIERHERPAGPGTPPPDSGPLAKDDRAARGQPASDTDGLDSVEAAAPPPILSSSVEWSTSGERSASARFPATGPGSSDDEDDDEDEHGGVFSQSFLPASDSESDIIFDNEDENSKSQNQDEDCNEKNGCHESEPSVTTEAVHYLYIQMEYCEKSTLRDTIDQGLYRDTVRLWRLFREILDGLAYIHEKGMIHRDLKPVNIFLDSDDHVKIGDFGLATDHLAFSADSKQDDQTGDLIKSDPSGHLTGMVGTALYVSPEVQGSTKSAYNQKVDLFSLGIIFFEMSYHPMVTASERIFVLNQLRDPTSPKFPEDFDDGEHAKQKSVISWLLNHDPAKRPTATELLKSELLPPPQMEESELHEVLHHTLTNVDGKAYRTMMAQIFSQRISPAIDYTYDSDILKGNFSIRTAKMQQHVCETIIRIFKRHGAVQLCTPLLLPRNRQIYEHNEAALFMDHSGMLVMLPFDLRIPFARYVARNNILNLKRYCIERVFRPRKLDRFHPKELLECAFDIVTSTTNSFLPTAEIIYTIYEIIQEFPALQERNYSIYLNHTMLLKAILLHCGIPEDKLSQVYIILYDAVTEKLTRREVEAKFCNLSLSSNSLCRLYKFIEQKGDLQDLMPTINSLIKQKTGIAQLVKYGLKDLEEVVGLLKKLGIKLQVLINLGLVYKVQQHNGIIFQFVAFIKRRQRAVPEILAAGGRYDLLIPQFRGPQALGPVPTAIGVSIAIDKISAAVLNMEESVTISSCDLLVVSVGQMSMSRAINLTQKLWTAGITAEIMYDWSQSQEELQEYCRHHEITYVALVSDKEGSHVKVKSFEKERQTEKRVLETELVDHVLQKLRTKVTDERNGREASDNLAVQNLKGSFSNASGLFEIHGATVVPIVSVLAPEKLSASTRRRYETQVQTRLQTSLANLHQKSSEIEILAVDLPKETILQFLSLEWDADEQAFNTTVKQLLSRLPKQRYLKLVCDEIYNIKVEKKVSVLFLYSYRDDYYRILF

T1: FLAG-tagged AURKA (Aurora kinase A) (UniProt O14965)
T1 sequence: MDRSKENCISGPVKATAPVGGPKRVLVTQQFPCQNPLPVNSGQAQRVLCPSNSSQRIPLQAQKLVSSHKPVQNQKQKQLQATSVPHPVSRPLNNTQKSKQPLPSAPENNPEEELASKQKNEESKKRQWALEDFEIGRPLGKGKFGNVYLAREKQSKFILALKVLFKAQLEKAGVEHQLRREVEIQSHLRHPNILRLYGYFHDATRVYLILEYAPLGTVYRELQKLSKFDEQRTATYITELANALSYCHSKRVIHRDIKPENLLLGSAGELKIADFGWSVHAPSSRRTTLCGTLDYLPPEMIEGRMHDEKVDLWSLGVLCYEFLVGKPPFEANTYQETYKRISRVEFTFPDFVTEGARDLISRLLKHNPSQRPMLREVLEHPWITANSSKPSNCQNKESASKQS

T2: FLAG-tagged AURKA, overexpressed in MDA-MB-231 cells (UniProt O14965)
T2 sequence: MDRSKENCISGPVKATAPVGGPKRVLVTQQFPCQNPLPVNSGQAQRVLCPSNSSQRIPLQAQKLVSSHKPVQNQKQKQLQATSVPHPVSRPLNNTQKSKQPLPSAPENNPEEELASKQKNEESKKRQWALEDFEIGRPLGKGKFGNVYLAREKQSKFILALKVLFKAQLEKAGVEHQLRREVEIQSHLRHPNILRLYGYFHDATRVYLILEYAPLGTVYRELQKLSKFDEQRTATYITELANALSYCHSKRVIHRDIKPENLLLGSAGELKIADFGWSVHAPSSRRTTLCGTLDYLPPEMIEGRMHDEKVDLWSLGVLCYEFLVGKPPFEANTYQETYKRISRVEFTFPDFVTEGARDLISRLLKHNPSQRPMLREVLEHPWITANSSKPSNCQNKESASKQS

T3: AURKA, endogenous in H1975 cells (human (endogenous in H1975)) (UniProt O14965)
T3 sequence: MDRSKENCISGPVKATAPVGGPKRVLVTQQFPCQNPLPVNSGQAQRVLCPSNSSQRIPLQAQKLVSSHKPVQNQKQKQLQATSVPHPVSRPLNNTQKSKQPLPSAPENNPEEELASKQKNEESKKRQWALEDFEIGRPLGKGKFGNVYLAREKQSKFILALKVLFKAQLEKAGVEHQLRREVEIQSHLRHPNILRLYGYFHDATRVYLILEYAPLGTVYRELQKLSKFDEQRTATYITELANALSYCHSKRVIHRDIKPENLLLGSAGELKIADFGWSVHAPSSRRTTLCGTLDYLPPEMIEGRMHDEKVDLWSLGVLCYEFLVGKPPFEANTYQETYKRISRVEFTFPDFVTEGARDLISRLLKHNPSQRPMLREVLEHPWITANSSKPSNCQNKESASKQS


What was measured:
[1] = biological target: T1, FLAG-tagged AURKA (Aurora kinase A); assay: co-IP; anti-FLAG antibody (IgG as control in some panels) on lysates of transfected HEK293T cells; NETN buffer (20 mM Tris-HCl pH 8.0, 100 mM NaCl, 0.5% NP-40, 1 mM EDTA), antibody overnight at 4 °C, Protein A/G magnetic beads, western blot; in Fig. 5E cells treated with vehicle or 200 nM MLN8237 for 4 h; in Fig. 5H with control vector or His-AURKA
[2] = biological target: FLAG-eIF2α (UniProt P05198); assay: as above
[3] = biological target: T2, FLAG-tagged AURKA, overexpressed in MDA-MB-231 cells; assay: co-IP; lysates of MDA-MB-231 cells overexpressing FLAG-tagged AURKA (Fig. S4A); NETN buffer, Protein A/G magnetic beads, western blot
[4] = biological target: T3, AURKA, endogenous in H1975 cells (human (endogenous in H1975)); assay: co-IP; endogenous proteins, IgG or AURKA antibody on H1975 lysate; NETN buffer, 4 °C, Protein A/G magnetic beads, blot with the eIF2α antibody
[5] = biological target: HA-tagged eIF2α (UniProt P05198); assay: co-IP; anti-HA antibody on lysates of HEK293T cells overexpressing HA-eIF2α, FLAG-AURKA or both; NETN buffer, 4 °C, Protein A/G magnetic beads, western blot

Molecule | binding [1] | other results
HA-tagged eIF2α (from UniProt P05198 1-315) | binds | 
eIF2α (untagged, overexpressed) (from UniProt P05198 1-315) | binds | 
eIF2α in MDA-MB-231 cells (from UniProt P05198 1-315) |  | binding [3]: binds
eIF2α, endogenous in H1975 cells (from UniProt P05198 1-315) |  | binding [4]: binds
FLAG-tagged AURKA (Aurora kinase A) (enzyme, UniProt O14965 1-403) MDRSKENCISGPVKATAPVGGPKRVLVTQQFPCQNPLPVNSGQAQRVLCPSNSSQRIPLQAQKLVSSHKPVQNQKQKQLQATSVPHPVSRPLNNTQKSKQPLPSAPENNPEEELASKQKNEESKKRQWALEDFEIGRPLGKGKFGNVYLAREKQSKFILALKVLFKAQLEKAGVEHQLRREVEIQSHLRHPNILRLYGYFHDATRVYLILEYAPLGTVYRELQKLSKFDEQRTATYITELANALSYCHSKRVIHRDIKPENLLLGSAGELKIADFGWSVHAPSSRRTTLCGTLDYLPPEMIEGRMHDEKVDLWSLGVLCYEFLVGKPPFEANTYQETYKRISRVEFTFPDFVTEGARDLISRLLKHNPSQRPMLREVLEHPWITANSSKPSNCQNKESASKQS |  | binding [5]: binds

Continued, in another order:

binding [1] | Molecule | other results
binds | HA-GCN2 (from UniProt Q9P2K8 1-1649) (enzyme) | binding [2]: binds
binds | HA-eIF2α-S52A (from UniProt P05198 1-315) | 
